We go through 24 molecules from publication PMC10163288.

This is one part of the list. Where only a bound is given, the exact number is not on record here.

To fix the notation:
B1: il10ra_site1_sap_22_mot_HHH_b1_00814_af2_000000078_0001_43_57_H_._HHH_b1_02037_0001_0000100005_0000002_1_0001 (protein)
chain: SSSSSSDIIRLAQELVRLALRKGDEEALQAVWEAVVAWARGELSEEEVEELLEKAEELLSSSSSS
B2: il10ra_site1_normal_mot_HHH_b2_04679_000000194_0001_21_38_H_._HHH_b1_06097_af2_0001_0000300026_0000001_0 (protein)
chain: SSSSDEEEERIEELLEELKRLIEEGDFQKFYRLSREVIELIHELNNEELAQILLELLREAFSSSS
B3: il10ra_site1_sap_15_mot_HHH_b1_02665_000000293_0001_1_18_H_._HHH_b1_05087_0001_0000300019_0000001_0_0001_af2pred_0001 (protein)
chain: SSSSDELQERAEELLEEAEERNDEEAAKLAKSVKYAVELAEKLGDPERAKLALRDLEADLSSSSS
B4: il10ra_site1_sap_18_mot_HHH_b1_04818_af2_000000063_0001_42_55_H_._HHH_b1_04225_af2_0002_0000100001_0000002_0_0001 (protein)
chain: SSSSDETEEVAELMREAVELDHNGDKEEAERVAREALELAEQLNNDVLRIQAEYLEKLIGSSSSS
B5: il10ra_site1_sap_19_mot_HHH_b1_05357_000000034_0001_23_39_H_._HHH_b1_06663_0001_0000100001_0000001_0_0001_af2pred_0001 (protein)
chain: SSSSSEVEQEVLRLLREASRAFIDGDPEEARKLLEQAERLAEEYNDEEAEELVKAVKEKISSSSS
B6: il10ra_site1_normal_mot_49468d6c54d8157f7969f91124172a68_0001_af2_000000173_0001_37_51_H_._HHH_b1_02831_0001_0000200008_0000002_0_af2pred_dldesign_0_af2pred (protein)
chain: SSSSEEEVHKVEVGFKIAKESKSKIALENLIQYAKELYEKTKDERVKEILEKAEKELKELESSSS
B7: il10ra_site1_normal_mot_HHH_b2_02262_af2_000000007_0001_40_53_H_._HHH_b2_05506_0001_0000200012_0000002_0 (protein)
chain: SSSSEEERLEKLLEEIEELIKEGDIEEALQVLWELVKLAAELNDEEILQKVLRLLRELLELSSSS
B8: il10ra_site1_normal_mot_HHH_b1_04693_000000238_0001_19_36_H_._HHH_b1_00120_0001_0000500011_0000001_0 (protein)
chain: SSSSQEAYEFARRVIEEVIELERNGDPEEAERLLEQAEEFLRELGNVAALAAIEALLRLLRSSSS
B9: il10ra_site1_normal_mot_8756ee2cf497b5429c717dfc0c0bcfd6_0001_000000186_0001_1_13_H_._HHH_b2_01483_0001_0000200015_0000001_0 (protein)
chain: SSSSTEEAEEVIELIRLVAELHREGNPEEAREVLERAEEIAREINNDVALAQIEYLERLLDSSSS
B10: il10ra_site1_sap_11_mot_ems_3hM_2751_000000089_0001_24_43_H_._HHH_b1_06082_0001_0000100002_0000002_0_0001 (protein)
chain: SSSSSDIEELLREAEELAEEGNPEEAARLLLEALRLIYEAQDEELLRELWEVVRRVAELSSSSSS
B11: il10ra_site1_sap_22_mot_HHH_b1_05672_af2_000000246_0001_1_19_H_._HHH_b1_02677_af2_0001_0000900031_0000001_0_0001 (protein)
chain: SSSSEEERVVELMFEAVRLLANGNPEEAEKVLEEAKELAEELNDEELQRYVEIALHFVRAHSSSS
B12: il10ra_site1_sap_23_mot_HHH_b2_00475_000000107_0001_44_57_H_._HHH_b1_00662_0001_0000800048_0000001_0_0001_af2pred_0001 (protein)
chain: SSSDETKERVEELLEEVEELIRQGNEEEARKVLLEALLVAAKGEDEEAFRLVLKLYRRLERSSSS
B13: il10ra_site1_sap_15_mot_HHH_b1_00999_000000080_0001_41_55_H_._HHH_b2_00528_0001_0000200007_0000001_0_0001_af2pred_0001 (protein)
chain: SSSSSSSDERAVRILLEAAKRIDDEERVRLSLRQAKLLAELANDPELEKLVEEVEEELSSSSSSS
B14: il10ra_site1_sap_14_mot_8756ee2cf497b5429c717dfc0c0bcfd6_0001_000000186_0001_1_13_H_._HHH_b1_08668_af2_0001_0000100005_0000001_0_0001 (protein)
chain: SSSSDAEEEAQELLEEAERLLEEGDRERFARVVQEALRAAFQASDEEIMQALWRLVARAKSSSSS
B15: il10ra_site1_sap_14_mot_HHH_b2_05207_000000229_0001_1_19_H_._HHH_b1_00008_af2_0001_0000200016_0000001_0_0001_af2pred_0001 (protein)
chain: SSSSDEEEEVFKLVAKALILADRLGDEETSRRLFELLAKAHATNDPELFEEAEELAREILGSSSS
B16: il10ra_site1_sap_19_mot_HHH_b1_04704_af2_000000076_0001_43_57_H_._HHH_b1_02547_af2_0001_0000500019_0000002_0_0001 (protein)
chain: SSSSSRERIVELLREAFRLALRGNPEEAKRVLEEAEELAEEAGNPDALRMVEMLLRALENSSSSS
B17: il10ra_site1_normal_mot_HHH_b1_00456_000000263_0001_1_17_H_._HHH_b1_04486_af2_0001_0000400024_0000001_0_af2pred_dldesign_0_af2pred (protein)
chain: SSSSDPEAEFYNAYTTAYSLAKEKKDEETVEELIELRKRWLATRDPSCLERVKAILEKLKSSSSS
B18: il10ra_site1_sap_18_mot_HHH_b2_00816_af2_000000077_0001_1_19_H_._HHH_b1_04432_af2_0001_0000400023_0000001_1_0001 (protein)
chain: SSSSSTQEVARRSAKFLLEAAKQIDDDEYVRLTLRFAKLSAEAVNDEELKEEIEEVIEELSSSSS
B19: il10ra_site1_sap_15_mot_8756ee2cf497b5429c717dfc0c0bcfd6_0001_000000186_0001_1_13_H_._HHH_b2_01574_0001_0000100003_0000001_0_0001 (protein)
chain: SSSSDEEEEELRELLREVKELLERGDPRRAARVAQELLRLIYRLRDEEALQELWRLIAERGSSSS
B20: il10ra_site1_sap_25_mot_HHH_b2_03220_af2_000000223_0001_23_40_H_._HHH_b1_07903_af2_0001_0000500024_0000002_0_0001 (protein)
chain: SSSSSDEEEELEELLEEVERAIKEGDEERALELIQEALRIVFQLGDEEALRRLWRLAKSISSSSS
B21: il10ra_site1_sap_16_mot_HHH_b2_01447_af2_000000258_0001_1_20_H_._HHH_b1_04646_0001_0000200011_0000001_0_0001 (protein)
chain: SSSSSEAHDELYELLERALEARAEGNPEEAEELLEEVLELARQLNDFIFVYSAEQLLKQLRSSSS
B22: il10ra_site1_normal_mot_8756ee2cf497b5429c717dfc0c0bcfd6_0001_000000186_0001_1_13_H_._HHH_b1_04603_af2_0001_0000300020_0000001_1 (protein)
chain: SSSSSEEVYELIREVAKLLRDGDKEEAKELLEEAEELAKELGNDVLLAQLEYLQEQLEQGSSSSS
B23: il10ra_site1_sap_25_mot_HHH_b2_06857_af2_000000179_0001_42_54_H_._HHH_b1_03840_af2_0001_0000100005_0000001_0_0001 (protein)
chain: SSSDERDQVYRLIKEALELMHRGNPEEAKKVLEEAEELAEELNSRVMRKIIEFLLRQIEETSSSS
B24: il10ra_site1_sap_15_mot_HHH_b1_02648_000000074_0001_1_19_H_._HHH_b1_03222_af2_0001_0000100006_0000002_0_0001 (protein)
chain: SSSSDEENEEALELVLEAVRLALRGDPEEARKVLEEALELAEEANNERLARIIEDMLKALHSSSS

The test addresses il10ra, Q13651. Put plainly: yeast display titration.
As usually defined, the apparent Kd is the concentration giving half-maximal binding under the conditions of the assay. For the molecule B1, the “apparent Kd” value was “inactive: no binding seen”.
To B2 belongs “inactive: no binding seen”; to B3, “inactive: no binding seen”; to B4, “inactive: no binding seen”.
Under B5 stands “inactive: no binding seen”; under B6, “inactive: no binding seen”; under B7, “inactive: no binding seen”.
In the case of B8, the “apparent Kd” value was “inactive: no binding seen”.
To B9 belongs “inactive: no binding seen”; to B10, “inactive: no binding seen”.
With B11, the “apparent Kd” value was “inactive: no binding seen”.
Under B12 stands “inactive: no binding seen”.
Under B13 stands “inactive: no binding seen”.
Under B14 stands “inactive: no binding seen”; under B15, “inactive: no binding seen”.
Consider B16, for which the “apparent Kd” value was “inactive: no binding seen”.
Under B17 stands “inactive: no binding seen”.
Under B18 stands “inactive: no binding seen”; under B19, “inactive: no binding seen”.
Under B20 stands inactive: > 380 nM; under B21, “inactive: no binding seen”; under B22, “inactive: no binding seen”.
For B23, the “apparent Kd” value is “inactive: no binding seen”.
To B24 belongs “inactive: no binding seen”.
